These are yes or no findings as the source states them, for the method shown. In cells and extracts the contact can be indirect. Some results given as binding are weak or reduced against the parent protein; the word gives no strength. Tags and fused reporters may be left off the sequences shown.
Tests used:
[1] = target: recombinant human protein Notch1 (human) (UniProt P46531); assay: co-immunoprecipitation with biotinylated Notch on streptavidin beads / SPR (Proteon XPR36) on immobilized biotinylated Notch
[2] = target: recombinant human protein Notch4 (human) (UniProt Q99466); assay: as above

The chains behind the UniProt entries cited, without tags or fusion partners. Residues count along the entry.
UniProt P46531, residues 19-526: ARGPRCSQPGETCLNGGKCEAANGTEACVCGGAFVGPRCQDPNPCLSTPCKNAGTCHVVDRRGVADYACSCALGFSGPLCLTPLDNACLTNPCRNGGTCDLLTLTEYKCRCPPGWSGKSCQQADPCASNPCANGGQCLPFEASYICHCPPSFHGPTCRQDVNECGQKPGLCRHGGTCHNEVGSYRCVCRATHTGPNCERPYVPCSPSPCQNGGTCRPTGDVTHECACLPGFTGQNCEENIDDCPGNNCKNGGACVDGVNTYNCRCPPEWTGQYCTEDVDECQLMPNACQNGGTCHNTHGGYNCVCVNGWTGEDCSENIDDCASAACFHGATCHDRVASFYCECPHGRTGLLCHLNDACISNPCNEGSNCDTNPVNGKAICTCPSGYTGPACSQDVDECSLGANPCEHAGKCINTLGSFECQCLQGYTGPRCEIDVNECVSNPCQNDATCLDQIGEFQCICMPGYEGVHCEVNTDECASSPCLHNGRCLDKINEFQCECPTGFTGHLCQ
UniProt Q99466, residues 24-549: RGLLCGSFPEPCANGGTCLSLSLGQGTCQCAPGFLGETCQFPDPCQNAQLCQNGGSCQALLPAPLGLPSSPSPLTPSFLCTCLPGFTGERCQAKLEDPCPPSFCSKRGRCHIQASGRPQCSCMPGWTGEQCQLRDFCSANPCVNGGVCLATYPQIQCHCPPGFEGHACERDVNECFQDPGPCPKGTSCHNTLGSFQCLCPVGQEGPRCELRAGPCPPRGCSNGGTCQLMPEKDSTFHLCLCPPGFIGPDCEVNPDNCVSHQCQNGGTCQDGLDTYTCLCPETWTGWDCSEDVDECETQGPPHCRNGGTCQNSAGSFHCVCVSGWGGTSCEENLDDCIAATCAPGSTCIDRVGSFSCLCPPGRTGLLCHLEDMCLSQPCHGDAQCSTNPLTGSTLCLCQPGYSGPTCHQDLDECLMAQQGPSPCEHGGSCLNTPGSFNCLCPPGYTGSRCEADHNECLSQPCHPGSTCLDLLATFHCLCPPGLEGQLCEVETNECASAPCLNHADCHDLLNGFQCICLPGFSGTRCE

Row | binding [1] | binding [2] | Binder
1 | binds | binds | fusion hDII4-hFc protein with the amino acid sequence of SEQ ID NO: 4 (DSL domain and EGF(1-8) domains of human DII4 fused with the Fc region of human IgG4) (Fc fusion) YRVICSDNYYGDNCSRLCKKRNDHFGHYVCQPDGNLSCLPGWTGEYCQQPICLSGCHEQNGYCSKPAECLCRPGWQGRLCNECIPHNGCRHGTCSTPWQCTCDEGWGGLFCDQDLNYCTHHSPCKNGATCSNSGQRSYTCTCRPGYTGVDCELELSECDSNPCRNGGSCKDQEDGYHCLCPPGYYGLHCEHSTLSCADSPCFNGGSCRERNQGANYACECPPNFTGSNCEKKVDRCTSNPCANGGQCLNRGPSRMCRCRPGFTGTYCELHVSDCARNPCAHGGTCHDLENGLMCTCPAGFSGRRCEVRTSIDACASSPCFNRATCYTDLSTDTFVCNCPYGFVGSGSYGPPCPPCPAPEFLGGPSVFLFPPKPKDTLMISRTPEVTCVVVDVSQEDPEVQFNWYVDGVEVHNAKTKPREEQFNSTYRVVSVLTVLHQDWLNGKEYKCKVSNKGLPSSIEKTISKAKGQPREPQVYTLPPSQEEMTKNQVSLTCLVKGFYPSDIAVEWESNGQPENNYKTTPPVLDSDGSFFLYSRLTVDKSRWQEGNVFSCSVMHEALHNHYTQKSLSLSPGK
2 | binds | binds | fusion hDII4-hFc protein with the amino acid sequence of SEQ ID NO: 2 (DSL domain and EGF(1-5) domains of human DII4 fused with the Fc region of human IgG4) (Fc fusion) YRVICSDNYYGDNCSRLCKKRNDHFGHYVCQPDGNLSCLPGWTGEYCQQPICLSGCHEQNGYCSKPAECLCRPGWQGRLCNECIPHNGCRHGTCSTPWQCTCDEGWGGLFCDQDLNYCTHHSPCKNGATCSNSGQRSYTCTCRPGYTGVDCELELSECDSNPCRNGGSCKDQEDGYHCLCPPGYYGLHCEHSTLSCADSPCFNGGSCRERNQGANYACECPPNFTGSNCEKKVDGSYGPPCPPCPAPEFLGGPSVFLFPPKPKDTLMISRTPEVTCVVVDVSQEDPEVQFNWYVDGVEVHNAKTKPREEQFNSTYRVVSVLTVLHQDWLNGKEYKCKVSNKGLPSSIEKTISKAKGQPREPQVYTLPPSQEEMTKNQVSLTCLVKGFYPSDIAVEWESNGQPENNYKTTPPVLDSDGSFFLYSRLTVDKSRWQEGNVFSCSVMHEALHNHYTQKSLSLSPGK
